This note sets out measurements from publication PMC8629984.

Amino acid sequences for entries named in this document (tags omitted). A change or cut given only in a name is not applied to a line headed by its entry.
UniProt P35579: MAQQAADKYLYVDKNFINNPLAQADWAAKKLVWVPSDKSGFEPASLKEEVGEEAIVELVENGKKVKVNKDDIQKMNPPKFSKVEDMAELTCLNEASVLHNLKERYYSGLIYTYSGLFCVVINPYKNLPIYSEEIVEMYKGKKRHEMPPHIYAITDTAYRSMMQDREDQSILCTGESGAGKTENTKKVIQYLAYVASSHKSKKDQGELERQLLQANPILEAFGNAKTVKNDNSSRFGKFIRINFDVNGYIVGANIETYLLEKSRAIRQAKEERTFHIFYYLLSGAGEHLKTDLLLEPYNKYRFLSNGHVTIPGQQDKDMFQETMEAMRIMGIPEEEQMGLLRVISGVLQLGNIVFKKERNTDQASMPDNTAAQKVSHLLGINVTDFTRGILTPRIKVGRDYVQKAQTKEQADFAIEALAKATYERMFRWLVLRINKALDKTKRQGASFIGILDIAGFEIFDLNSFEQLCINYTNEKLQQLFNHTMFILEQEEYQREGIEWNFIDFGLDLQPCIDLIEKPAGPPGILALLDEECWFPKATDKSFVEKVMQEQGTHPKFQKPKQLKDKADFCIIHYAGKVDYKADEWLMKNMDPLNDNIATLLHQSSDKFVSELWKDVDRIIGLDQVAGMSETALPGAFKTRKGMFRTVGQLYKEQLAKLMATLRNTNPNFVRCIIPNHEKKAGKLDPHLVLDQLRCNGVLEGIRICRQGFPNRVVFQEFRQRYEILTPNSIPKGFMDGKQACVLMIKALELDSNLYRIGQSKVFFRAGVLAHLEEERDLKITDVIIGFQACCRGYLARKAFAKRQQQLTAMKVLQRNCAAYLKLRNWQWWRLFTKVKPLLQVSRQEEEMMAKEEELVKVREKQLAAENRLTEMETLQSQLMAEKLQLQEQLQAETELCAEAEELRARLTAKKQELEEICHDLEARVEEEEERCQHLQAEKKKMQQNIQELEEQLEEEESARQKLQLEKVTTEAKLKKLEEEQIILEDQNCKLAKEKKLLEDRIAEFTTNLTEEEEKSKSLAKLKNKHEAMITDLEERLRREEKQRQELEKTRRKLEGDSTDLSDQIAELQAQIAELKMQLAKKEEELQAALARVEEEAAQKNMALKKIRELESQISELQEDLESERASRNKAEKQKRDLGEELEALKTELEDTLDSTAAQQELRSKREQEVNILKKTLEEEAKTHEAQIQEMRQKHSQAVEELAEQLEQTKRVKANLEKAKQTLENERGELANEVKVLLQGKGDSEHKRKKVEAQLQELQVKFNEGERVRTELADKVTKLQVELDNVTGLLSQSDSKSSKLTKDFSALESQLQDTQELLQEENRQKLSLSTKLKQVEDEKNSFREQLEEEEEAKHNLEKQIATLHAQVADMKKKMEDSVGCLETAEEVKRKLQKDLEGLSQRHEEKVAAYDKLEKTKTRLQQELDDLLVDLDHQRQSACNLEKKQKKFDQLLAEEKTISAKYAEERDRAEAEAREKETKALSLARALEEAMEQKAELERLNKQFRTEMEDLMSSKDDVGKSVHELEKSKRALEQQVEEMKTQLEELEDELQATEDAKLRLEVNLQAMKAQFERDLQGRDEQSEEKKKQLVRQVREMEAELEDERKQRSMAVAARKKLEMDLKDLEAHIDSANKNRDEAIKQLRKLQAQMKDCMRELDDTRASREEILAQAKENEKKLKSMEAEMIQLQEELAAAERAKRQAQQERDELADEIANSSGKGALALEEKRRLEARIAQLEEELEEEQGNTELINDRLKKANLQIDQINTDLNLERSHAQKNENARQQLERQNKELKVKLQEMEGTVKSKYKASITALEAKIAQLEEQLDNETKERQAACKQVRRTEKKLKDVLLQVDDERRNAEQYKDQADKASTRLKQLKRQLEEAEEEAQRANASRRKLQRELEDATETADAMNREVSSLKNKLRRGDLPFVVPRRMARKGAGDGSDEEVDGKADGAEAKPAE
UniProt P05556: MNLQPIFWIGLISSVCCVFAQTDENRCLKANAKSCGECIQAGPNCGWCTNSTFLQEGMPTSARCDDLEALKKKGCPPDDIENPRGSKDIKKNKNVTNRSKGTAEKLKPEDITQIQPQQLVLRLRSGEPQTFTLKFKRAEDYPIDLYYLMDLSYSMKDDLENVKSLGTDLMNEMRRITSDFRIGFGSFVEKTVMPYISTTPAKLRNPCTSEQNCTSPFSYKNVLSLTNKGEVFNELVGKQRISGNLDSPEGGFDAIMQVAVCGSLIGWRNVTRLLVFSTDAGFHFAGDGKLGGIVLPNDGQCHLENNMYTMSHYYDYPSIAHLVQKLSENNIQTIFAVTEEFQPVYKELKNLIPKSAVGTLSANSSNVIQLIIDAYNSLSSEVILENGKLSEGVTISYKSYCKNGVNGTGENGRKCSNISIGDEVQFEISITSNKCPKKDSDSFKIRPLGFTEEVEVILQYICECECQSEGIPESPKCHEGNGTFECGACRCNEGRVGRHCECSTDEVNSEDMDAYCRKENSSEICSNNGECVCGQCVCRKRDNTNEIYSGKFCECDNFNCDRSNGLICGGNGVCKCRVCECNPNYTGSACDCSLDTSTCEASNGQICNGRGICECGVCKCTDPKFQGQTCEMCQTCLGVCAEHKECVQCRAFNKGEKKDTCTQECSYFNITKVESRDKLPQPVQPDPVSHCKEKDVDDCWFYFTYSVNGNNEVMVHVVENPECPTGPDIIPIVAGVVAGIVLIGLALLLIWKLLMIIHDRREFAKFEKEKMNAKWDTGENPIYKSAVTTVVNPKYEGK
UniProt Q9UNE7: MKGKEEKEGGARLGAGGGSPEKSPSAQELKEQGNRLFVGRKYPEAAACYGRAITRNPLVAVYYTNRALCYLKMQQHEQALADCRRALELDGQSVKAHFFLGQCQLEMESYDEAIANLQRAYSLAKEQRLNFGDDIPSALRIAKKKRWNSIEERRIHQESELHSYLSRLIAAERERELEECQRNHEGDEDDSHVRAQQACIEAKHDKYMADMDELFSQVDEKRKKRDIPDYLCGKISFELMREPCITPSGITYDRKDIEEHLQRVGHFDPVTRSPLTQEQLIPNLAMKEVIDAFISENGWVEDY
UniProt Q9Y490: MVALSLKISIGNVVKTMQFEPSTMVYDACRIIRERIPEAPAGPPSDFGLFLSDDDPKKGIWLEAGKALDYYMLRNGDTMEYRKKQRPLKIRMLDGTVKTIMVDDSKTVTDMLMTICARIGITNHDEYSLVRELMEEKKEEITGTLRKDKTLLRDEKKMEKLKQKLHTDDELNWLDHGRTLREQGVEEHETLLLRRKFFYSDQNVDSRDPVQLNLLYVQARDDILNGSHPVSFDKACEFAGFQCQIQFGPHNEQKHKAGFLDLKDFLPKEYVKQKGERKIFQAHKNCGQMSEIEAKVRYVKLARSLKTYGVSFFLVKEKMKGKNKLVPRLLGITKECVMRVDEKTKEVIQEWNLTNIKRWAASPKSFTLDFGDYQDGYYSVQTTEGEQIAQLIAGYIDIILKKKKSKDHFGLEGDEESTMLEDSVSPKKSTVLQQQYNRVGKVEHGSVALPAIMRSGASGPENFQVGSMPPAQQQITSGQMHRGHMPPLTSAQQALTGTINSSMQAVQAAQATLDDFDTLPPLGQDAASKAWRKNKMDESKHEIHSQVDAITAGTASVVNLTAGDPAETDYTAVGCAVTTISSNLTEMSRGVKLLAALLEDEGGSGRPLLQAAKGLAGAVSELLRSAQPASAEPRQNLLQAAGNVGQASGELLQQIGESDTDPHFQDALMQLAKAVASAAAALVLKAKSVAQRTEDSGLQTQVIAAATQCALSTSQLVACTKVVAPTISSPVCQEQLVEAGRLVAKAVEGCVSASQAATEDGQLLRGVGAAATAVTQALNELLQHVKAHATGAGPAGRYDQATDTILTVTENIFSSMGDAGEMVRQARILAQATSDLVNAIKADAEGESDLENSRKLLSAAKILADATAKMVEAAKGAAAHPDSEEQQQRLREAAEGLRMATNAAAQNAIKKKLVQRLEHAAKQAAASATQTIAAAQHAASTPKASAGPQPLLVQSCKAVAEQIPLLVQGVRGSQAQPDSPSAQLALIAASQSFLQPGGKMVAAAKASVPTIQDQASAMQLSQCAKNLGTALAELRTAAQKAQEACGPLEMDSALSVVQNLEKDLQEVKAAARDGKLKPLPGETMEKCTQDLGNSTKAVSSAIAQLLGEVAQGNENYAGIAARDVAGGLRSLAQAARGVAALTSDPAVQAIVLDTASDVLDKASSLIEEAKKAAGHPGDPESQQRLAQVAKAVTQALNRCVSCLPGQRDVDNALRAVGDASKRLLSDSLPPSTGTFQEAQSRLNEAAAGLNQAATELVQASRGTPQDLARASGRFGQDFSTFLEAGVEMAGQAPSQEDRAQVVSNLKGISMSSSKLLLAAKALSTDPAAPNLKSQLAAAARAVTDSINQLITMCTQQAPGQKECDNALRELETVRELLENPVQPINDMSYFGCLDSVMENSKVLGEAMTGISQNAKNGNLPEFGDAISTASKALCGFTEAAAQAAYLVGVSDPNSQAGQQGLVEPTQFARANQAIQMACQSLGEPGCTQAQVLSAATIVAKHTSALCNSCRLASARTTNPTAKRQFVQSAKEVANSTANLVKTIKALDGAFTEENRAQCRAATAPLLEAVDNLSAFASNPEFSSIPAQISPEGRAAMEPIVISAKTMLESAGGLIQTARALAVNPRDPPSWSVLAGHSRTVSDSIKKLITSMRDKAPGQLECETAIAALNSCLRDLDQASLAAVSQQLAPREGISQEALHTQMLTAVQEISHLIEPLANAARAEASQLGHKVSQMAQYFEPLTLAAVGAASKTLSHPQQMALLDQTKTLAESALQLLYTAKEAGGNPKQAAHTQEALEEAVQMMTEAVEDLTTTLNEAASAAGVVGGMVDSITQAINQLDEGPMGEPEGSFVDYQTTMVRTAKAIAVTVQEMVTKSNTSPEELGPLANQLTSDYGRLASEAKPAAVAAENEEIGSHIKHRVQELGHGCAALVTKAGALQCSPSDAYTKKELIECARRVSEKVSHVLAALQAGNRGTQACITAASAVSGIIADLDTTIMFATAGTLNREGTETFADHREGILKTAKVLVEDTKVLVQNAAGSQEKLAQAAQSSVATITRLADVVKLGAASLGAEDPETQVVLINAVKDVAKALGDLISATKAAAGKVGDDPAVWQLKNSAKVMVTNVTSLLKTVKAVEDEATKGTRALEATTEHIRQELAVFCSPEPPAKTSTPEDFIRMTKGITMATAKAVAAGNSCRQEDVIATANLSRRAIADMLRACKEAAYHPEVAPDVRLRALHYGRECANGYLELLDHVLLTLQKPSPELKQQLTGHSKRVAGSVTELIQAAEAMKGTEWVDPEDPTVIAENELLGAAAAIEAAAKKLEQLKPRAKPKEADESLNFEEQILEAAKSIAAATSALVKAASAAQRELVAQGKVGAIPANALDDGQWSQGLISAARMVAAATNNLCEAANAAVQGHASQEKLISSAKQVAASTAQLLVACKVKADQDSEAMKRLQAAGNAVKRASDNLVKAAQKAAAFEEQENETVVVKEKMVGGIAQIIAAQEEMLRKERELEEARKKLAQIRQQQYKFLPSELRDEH

For experiment [1], the target named is myosin-9 (MYH9), endogenous (human (endogenous in SW620, LoVo, SW480)) (UniProt P35579). As to the kind of experiment: co-IP; Fig. S6B; cells and constructs not shown.
Experiment [2] addresses T1, autophagy-related protein 9B (ATG9B), endogenous (human (endogenous in SW620, LoVo, SW480)) (UniProt Q674R7).
T1 sequence: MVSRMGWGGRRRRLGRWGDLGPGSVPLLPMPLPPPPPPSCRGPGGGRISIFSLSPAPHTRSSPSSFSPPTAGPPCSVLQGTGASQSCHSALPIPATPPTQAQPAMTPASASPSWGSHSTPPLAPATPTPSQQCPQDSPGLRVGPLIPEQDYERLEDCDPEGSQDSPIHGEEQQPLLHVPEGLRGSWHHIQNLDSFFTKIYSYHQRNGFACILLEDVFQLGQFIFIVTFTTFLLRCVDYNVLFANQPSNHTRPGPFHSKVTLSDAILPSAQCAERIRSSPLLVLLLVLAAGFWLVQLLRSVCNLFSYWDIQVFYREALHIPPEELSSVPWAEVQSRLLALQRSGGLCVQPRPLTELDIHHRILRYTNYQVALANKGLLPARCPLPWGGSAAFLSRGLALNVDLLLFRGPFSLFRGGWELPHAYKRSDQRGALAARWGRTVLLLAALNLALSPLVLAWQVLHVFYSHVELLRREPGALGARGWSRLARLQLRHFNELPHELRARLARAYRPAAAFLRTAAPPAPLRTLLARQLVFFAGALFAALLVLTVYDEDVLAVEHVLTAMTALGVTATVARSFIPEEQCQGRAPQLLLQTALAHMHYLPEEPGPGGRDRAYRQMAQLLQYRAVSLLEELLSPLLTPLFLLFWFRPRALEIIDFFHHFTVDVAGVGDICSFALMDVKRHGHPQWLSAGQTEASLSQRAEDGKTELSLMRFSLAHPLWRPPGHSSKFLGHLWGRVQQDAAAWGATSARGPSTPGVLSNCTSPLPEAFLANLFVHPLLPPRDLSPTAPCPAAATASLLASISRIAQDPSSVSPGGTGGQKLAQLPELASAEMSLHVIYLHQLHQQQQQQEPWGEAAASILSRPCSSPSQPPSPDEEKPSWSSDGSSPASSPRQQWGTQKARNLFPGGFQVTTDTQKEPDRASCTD
Description: co-IP; Fig. S6B; cells and constructs not shown.

In experiment [3] the target is myosin-9 (MYH9), endogenous (human (endogenous in SW620, LoVo, SW480)) (UniProt P35579). Description: co-IP; SW480 cells transfected with vector or MYH9, ATG9B or ΔATG9B plasmids, RIPA lysates, western blot. In general terms: In western blotting, separated proteins are transferred to a membrane and probed.
Experiment [4] addresses T1, autophagy-related protein 9B (ATG9B), endogenous (human (endogenous in SW620, LoVo, SW480)). Described as above.
Experiment [5] has as its target T2, His-tagged ATG9B (ATG9B^His) (human) (UniProt Q674R7).
T2 sequence: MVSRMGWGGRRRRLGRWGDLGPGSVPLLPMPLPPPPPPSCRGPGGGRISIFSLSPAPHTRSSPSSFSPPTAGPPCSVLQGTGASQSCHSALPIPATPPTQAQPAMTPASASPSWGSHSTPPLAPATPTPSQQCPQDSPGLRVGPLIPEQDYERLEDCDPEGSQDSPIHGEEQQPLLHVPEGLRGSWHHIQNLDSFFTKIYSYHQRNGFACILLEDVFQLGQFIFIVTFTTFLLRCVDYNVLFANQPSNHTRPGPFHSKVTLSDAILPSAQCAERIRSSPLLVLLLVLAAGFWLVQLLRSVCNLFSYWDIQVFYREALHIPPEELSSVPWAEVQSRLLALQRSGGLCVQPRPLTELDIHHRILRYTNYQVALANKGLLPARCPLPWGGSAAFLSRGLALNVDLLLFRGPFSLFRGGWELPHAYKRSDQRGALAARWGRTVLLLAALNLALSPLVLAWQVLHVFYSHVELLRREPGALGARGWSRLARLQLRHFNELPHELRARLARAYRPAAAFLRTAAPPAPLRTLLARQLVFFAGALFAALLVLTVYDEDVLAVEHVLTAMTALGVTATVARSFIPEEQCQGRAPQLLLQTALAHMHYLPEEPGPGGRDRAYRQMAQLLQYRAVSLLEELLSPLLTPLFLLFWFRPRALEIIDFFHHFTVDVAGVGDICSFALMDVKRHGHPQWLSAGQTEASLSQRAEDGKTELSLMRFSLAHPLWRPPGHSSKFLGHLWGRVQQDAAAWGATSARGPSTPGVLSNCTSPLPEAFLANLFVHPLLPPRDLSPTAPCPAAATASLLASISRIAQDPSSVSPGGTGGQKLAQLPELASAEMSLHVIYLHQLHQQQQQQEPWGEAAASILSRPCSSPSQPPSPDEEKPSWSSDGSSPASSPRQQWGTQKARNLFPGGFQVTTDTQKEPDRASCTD
As to the kind of experiment: co-IP; HEK293T cells transfected with His-tagged ATG9B constructs and Flag-tagged MYH9 constructs, RIPA lysates, IP with anti-Flag or anti-His, western blot.

For experiment [6], the target named is T3, ATG9B-Cd2^His protein (amino acids 298–438) (human) (UniProt Q674R7).
T3 sequence: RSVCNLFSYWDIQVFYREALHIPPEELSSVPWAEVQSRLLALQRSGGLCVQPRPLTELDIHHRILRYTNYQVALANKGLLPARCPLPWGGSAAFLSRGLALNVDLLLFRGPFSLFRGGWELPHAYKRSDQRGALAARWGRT
As to the kind of experiment: pull-down; bacteria-expressed His or ATG9B-Cd2^His held on His-tag magnetic beads, added to lysates of 293T cells transfected with MYH9^Flag overnight, eluate by western blot; only the target purified.

In experiment [7] the target is T1, autophagy-related protein 9B (ATG9B), endogenous (human (endogenous in SW620, LoVo, SW480)). As to the kind of experiment: co-IP; endogenous proteins in SW620 and LoVo lysates (RIPA buffer), indicated antibodies on protein A/G beads, western blot; SW620 also with si-Control or si-ATG9B.
In experiment [8] the target is integrin β1, endogenous (human (endogenous in SW620, SW480)) (UniProt P05556). The experiment is described as above.
The target is the same in experiment [9]. Description: co-IP; SW480 cells transfected with vector or MYH9, ATG9B or ΔATG9B plasmids, RIPA lysates, western blot.
The target of experiment [10] is myosin-9 (MYH9), endogenous (human (endogenous in SW620, LoVo, SW480)) (UniProt P35579). The description is as above. This is another data set of the same source.

Results are given in words; binding and its absence hold for the method and conditions named. Binding seen in cells or lysates may run through a third protein. Some entries that bind do so weakly or less than the wild type. For some of these results: Sequences can lack the tags named with a protein.

Turning to “E3 ubiquitin ligase STUB1 (carboxyl terminus of hsc70-interacting protein, CHIP) (from UniProt Q9UNE7 1-303) (enzyme)”, the binding entry in experiment [1], in [2], in experiment [3] and in experiment [4] was “binds” each time.

“Flag-tagged MYH9 (MYH9^Flag) (from UniProt P35579 1-1960)”: the binding result in experiment [5] and in experiment [6] was “binds” throughout.

Consider “MYH9 overexpressed in SW480 cells (MYH9 plasmids) (from UniProt P35579 1-1960)”, for which the binding entry in [4] is “binds”.

With “Talin-1, endogenous (from UniProt Q9Y490 1-2541)”, the binding result in experiment [7], in experiment [8] and in experiment [9] was “binds” throughout.

In the case of “integrin β1, endogenous (from UniProt P05556 21-798) (receptor)”, the binding entry in experiment [7] was “binds”.

With “myosin-9 (MYH9), endogenous (from UniProt P35579 1-1960)”, in experiment [7], the binding entry is given as “binds”.

B1: ATG9B overexpressed in SW480 cells (ATG9B plasmids) (protein, UniProt Q674R7 1-924)
chain: MVSRMGWGGRRRRLGRWGDLGPGSVPLLPMPLPPPPPPSCRGPGGGRISIFSLSPAPHTRSSPSSFSPPTAGPPCSVLQGTGASQSCHSALPIPATPPTQAQPAMTPASASPSWGSHSTPPLAPATPTPSQQCPQDSPGLRVGPLIPEQDYERLEDCDPEGSQDSPIHGEEQQPLLHVPEGLRGSWHHIQNLDSFFTKIYSYHQRNGFACILLEDVFQLGQFIFIVTFTTFLLRCVDYNVLFANQPSNHTRPGPFHSKVTLSDAILPSAQCAERIRSSPLLVLLLVLAAGFWLVQLLRSVCNLFSYWDIQVFYREALHIPPEELSSVPWAEVQSRLLALQRSGGLCVQPRPLTELDIHHRILRYTNYQVALANKGLLPARCPLPWGGSAAFLSRGLALNVDLLLFRGPFSLFRGGWELPHAYKRSDQRGALAARWGRTVLLLAALNLALSPLVLAWQVLHVFYSHVELLRREPGALGARGWSRLARLQLRHFNELPHELRARLARAYRPAAAFLRTAAPPAPLRTLLARQLVFFAGALFAALLVLTVYDEDVLAVEHVLTAMTALGVTATVARSFIPEEQCQGRAPQLLLQTALAHMHYLPEEPGPGGRDRAYRQMAQLLQYRAVSLLEELLSPLLTPLFLLFWFRPRALEIIDFFHHFTVDVAGVGDICSFALMDVKRHGHPQWLSAGQTEASLSQRAEDGKTELSLMRFSLAHPLWRPPGHSSKFLGHLWGRVQQDAAAWGATSARGPSTPGVLSNCTSPLPEAFLANLFVHPLLPPRDLSPTAPCPAAATASLLASISRIAQDPSSVSPGGTGGQKLAQLPELASAEMSLHVIYLHQLHQQQQQQEPWGEAAASILSRPCSSPSQPPSPDEEKPSWSSDGSSPASSPRQQWGTQKARNLFPGGFQVTTDTQKEPDRASCTD
Turning to B1, in experiment [10], the binding entry is recorded as “binds”.
